# Laboratory results as given in patent US20140315834A1 (Medicon Pharmaceuticals, Inc., priority 2012, published 2014).
# Some of these results come from one statement about several compounds together.
# Tested on: platelets (human platelet-rich plasma)
# Experiment: Thromboelastography, maximum signal amplitude (MA)
# Assay type: cell-based
# Details: concentrations between 0.25 and 1.2 mM
compound,measurement,value
"CCOP(=O)(OCC)OCCCCOC(=O)CC1=C(C)/C(=C/c2ccc([S+](C)[O-])cc2)c2ccc(F)cc21 (stereo not shown) [Compound 96, Phospho-Sulindac]",inhibition of platelet aggregation,30-80%
